Experimental data published in publication PMC7819943, “Rice protein-binding microarrays: a tool to detect cis-acting elements near promoter regions in rice”.
This is one part of the list.

Sequences of proteins named here, by UniProt entry; tags and fusion partners are left off.
UniProt Q0JBA9, entry or part of it: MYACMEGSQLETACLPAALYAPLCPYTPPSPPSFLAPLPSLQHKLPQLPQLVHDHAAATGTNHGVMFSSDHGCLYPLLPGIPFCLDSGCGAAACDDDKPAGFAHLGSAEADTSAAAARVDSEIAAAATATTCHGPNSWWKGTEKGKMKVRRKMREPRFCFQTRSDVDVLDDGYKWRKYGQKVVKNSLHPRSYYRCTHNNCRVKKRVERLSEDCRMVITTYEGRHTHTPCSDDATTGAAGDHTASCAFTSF

Target: OsWRKY34 (Oryza sativa, UniProt Q0JBA9 1-250)
Test: protein-binding microarray (RPBM); PBS, 2% BSA, 51.3 ng/ul salmon testes DNA, 50 uM zinc acetate, 200 nM TF, 25 C, 1 h; high values mean tight binding
Settings: protein: recombinant; tags: N-terminal polyhistidine and DsRed monomer fusion (pET32a); label: CyDye5-dUTP incorporated in the synthesized complementary strand; 3' TTTTT single-stranded linker to array surface; dsDNA, one strand shown
Summary of the method: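 An Axon 4000B scanner gave the binding signal as per-feature fluorescence intensity in arbitrary units. This followed washing of a custom Agilent array that had been incubated for 1 h at 25 °C with 200 nM protein in PBS, 2% BSA, salmon testes DNA and 50 µM zinc acetate. The proteins were transcription factors fused at the N-terminus to polyhistidine and DsRed, expressed in E. coli BL21-CodonPlus and purified on Ni–NTA.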

| Sequence | binding signal |
| --- | --- |
| CTGCTTGGTGCTGCCGGCTACTATATCTTGATGCTTTGTTCGGAGTCACCTAGTGCAG | 11700 fluorescence intensity (a.u.) |
| CCTCTTTTCTTTTTCTTCCGGCCTCTCCTTCCAAAAGCCTCGGAGTCACCTAGTGCAG | 10500 fluorescence intensity (a.u.) |
| GCCCAAGCCTCACAAGGTCCAGCTACCATCCGCCGCTCCTCGGAGTCACCTAGTGCAG | 8590 fluorescence intensity (a.u.) |
| GCCTTATGTTAGCGTTTTGTGTCGGCCACTTGTGTAACTACGGAGTCACCTAGTGCAG | 8540 fluorescence intensity (a.u.) |
| TAAGCTGTACGGGAAGGGTTGACGTTCTCATTGTTATTCCCGGAGTCACCTAGTGCAG | 8430 fluorescence intensity (a.u.) |
| CGCCACTAGATTTTTTCCCGTCTCGTGCCATTGACTCGCGCGGAGTCACCTAGTGCAG | 11200 fluorescence intensity (a.u.) |
| AGAGTGTCAGACAGACGGGTGGGCAACTGGGGCGACGATGCGGAGTCACCTAGTGCAG | 9930 fluorescence intensity (a.u.) |
| TATATACCGCTGCAATGCTCGCTAGCTTAGCTAAGCAACTCGGAGTCACCTAGTGCAG | 8450 fluorescence intensity (a.u.) |
| ACAACACATCATTGACACACAACTATACCAACGTTCTATCCGGAGTCACCTAGTGCAG | 8490 fluorescence intensity (a.u.) |
| TTCACCGAGGTTCCGCTCCGCTCCGCTCGTCTGCGGATCGCGGAGTCACCTAGTGCAG | 8130 fluorescence intensity (a.u.) |
| TTACTTCTCCTTTGCTATATACGCTCTAAGGCTGCGTTTTCGGAGTCACCTAGTGCAG | 8260 fluorescence intensity (a.u.) |
| CTGGTGTCCATGGTTTTTTCTCTTATGCTTTGGCAGGATTCGGAGTCACCTAGTGCAG | 8510 fluorescence intensity (a.u.) |
| GTGTCCATGCTGCTTGTTTCTTTCATGGTTAAGCCATTTTCGGAGTCACCTAGTGCAG | 13400 fluorescence intensity (a.u.) |
| TAATATTACTTATTTTTAATTCCGAATTTCAGCTATTTTTCGGAGTCACCTAGTGCAG | 8760 fluorescence intensity (a.u.) |
| TTTCGCTTTTTGCTAGAGATCTAGCCACTTTCTTTGATCGCGGAGTCACCTAGTGCAG | 8600 fluorescence intensity (a.u.) |
| AGTTGCACCATGCCCACCATTCTTCTGCTATACCCCATGACGGAGTCACCTAGTGCAG | 10400 fluorescence intensity (a.u.) |
| TTTTCTTTTTTCCCGCACTTTCTTTTCTTCCCGGAGATGTCGGAGTCACCTAGTGCAG | 8400 fluorescence intensity (a.u.) |
| TTTTTTTTTCATTAATTTGCGGCCCTTTGTGCAAGCTGCACGGAGTCACCTAGTGCAG | 8090 fluorescence intensity (a.u.) |
| AACTGTCCCAATCTATTCTCTCCTTATCTCCTCTCCTCCTCGGAGTCACCTAGTGCAG | 8120 fluorescence intensity (a.u.) |
| ATTATGCCCCTTATTACATTTCAGCCTACAGCGATCTACCCGGAGTCACCTAGTGCAG | 8140 fluorescence intensity (a.u.) |
| TCACCCCTTTGCTACTTTTCATATCCATGCAACATGCATACGGAGTCACCTAGTGCAG | 8320 fluorescence intensity (a.u.) |
| GAAATGGTTTTGCTGTTATACCGATCGTTTCCGTATTTACCGGAGTCACCTAGTGCAG | 10600 fluorescence intensity (a.u.) |
| GGTGTGATATATCTGGTTTTGTGGTTCGGTGGGGTAATTCCGGAGTCACCTAGTGCAG | 22000 fluorescence intensity (a.u.) |
| GCTTTTCTCTTTCCTTGCATTCTCTCTCTTTCAACTCAACCGGAGTCACCTAGTGCAG | 13800 fluorescence intensity (a.u.) |
| GTTTGGTGGTACTTTCTGTTACTCCTATTGGATTCTGAAACGGAGTCACCTAGTGCAG | 10400 fluorescence intensity (a.u.) |
| GTCACCACCATCGATCGCCAGCTCGCGAAAACCAGAATCGCGGAGTCACCTAGTGCAG | 8950 fluorescence intensity (a.u.) |
| ACCAGACTCGGCACCCGCTTTCTCATTTTTTTTTTCTTTTCGGAGTCACCTAGTGCAG | 8780 fluorescence intensity (a.u.) |

Copied from the list:
binding signal with TATATACCGCTGCAATGCTCGCTAGCTTAGCTAAGCAACTCGGAGTCACCTAGTGCAG is entered as 8450 fluorescence intensity (a.u.)
binding signal with TAAGCTGTACGGGAAGGGTTGACGTTCTCATTGTTATTCCCGGAGTCACCTAGTGCAG is entered as 8430 fluorescence intensity (a.u.)
binding signal with TAATATTACTTATTTTTAATTCCGAATTTCAGCTATTTTTCGGAGTCACCTAGTGCAG is entered as 8760 fluorescence intensity (a.u.)

Additional records follow.

| Sequence | binding signal |
| --- | --- |
| CGATATGGAGATATGGAGTTGTTGATGGTTAATTGCTTCCCGGAGTCACCTAGTGCAG | 10200 fluorescence intensity (a.u.) |
| GGATTGTTTATTAGTTTGCCGATTCACAGTACAAACTTGGCGGAGTCACCTAGTGCAG | 8520 fluorescence intensity (a.u.) |
| GAGAATAAACACGTGGCCAACTAACTTCATTACACAGTTTCGGAGTCACCTAGTGCAG | 8030 fluorescence intensity (a.u.) |
| ACCCACATGTCAGCCTTCATTGCTTTCTTCTTCCTCCTCTCGGAGTCACCTAGTGCAG | 9690 fluorescence intensity (a.u.) |
| TTTACTATTTGCCACTCTCTCAAAATAACCAGTGCTCAAACGGAGTCACCTAGTGCAG | 8400 fluorescence intensity (a.u.) |
| GTTTTCCGATCGTTTCTGACCGTTTTCATCCCTAGTTTGGCGGAGTCACCTAGTGCAG | 10700 fluorescence intensity (a.u.) |
| GTTTTTGTGCTTGGTGGTGGTGGTGGGTGATTTGCAGGGGCGGAGTCACCTAGTGCAG | 31700 fluorescence intensity (a.u.) |
| GTTGCAAGAATAGGTATAGGAGAATGTATGGTTGCTTTTTCGGAGTCACCTAGTGCAG | 8180 fluorescence intensity (a.u.) |
| ACTCTACTCCGTATTCTTCTAGTTAACTTGTTCGATCGTCCGGAGTCACCTAGTGCAG | 12000 fluorescence intensity (a.u.) |
| GCCGCCACCGCAACCTACCGCCGCCGCGGCAAGCCCAAGCCGGAGTCACCTAGTGCAG | 8960 fluorescence intensity (a.u.) |
| CAAATCCATCTTCTTTTTTGGTCTCTTCTTCTTCTTCTTCCGGAGTCACCTAGTGCAG | 11100 fluorescence intensity (a.u.) |
| AGCATCAACTCCAGTTTGTCGGGCCTGCCGTTGACTGACCCGGAGTCACCTAGTGCAG | 12200 fluorescence intensity (a.u.) |
| CCTGGCCCGACAAACGTCCCACTCTCGCATCCCATCTCATCGGAGTCACCTAGTGCAG | 9060 fluorescence intensity (a.u.) |
| CACTCTCCACCTTCTTCTTCCCAGCTTCTCTCGTCTCGGCCGGAGTCACCTAGTGCAG | 10700 fluorescence intensity (a.u.) |
| CTCGCTTCTCCTCCCTCTGCTCCGATCCGCGCGCTCCCACCGGAGTCACCTAGTGCAG | 8930 fluorescence intensity (a.u.) |
| GAGGGTGGTGTTAGGTGAAACAAATGGCAATATTATGTGGCGGAGTCACCTAGTGCAG | 8300 fluorescence intensity (a.u.) |
| ACCTAACAACTGTACTGCCCGGCTGCCAACTTCCATTCTCCGGAGTCACCTAGTGCAG | 8320 fluorescence intensity (a.u.) |
| TGGCTCTCTCTTGATGCACCACACAACATTTATTTGACTGCGGAGTCACCTAGTGCAG | 8530 fluorescence intensity (a.u.) |
| ATGGCGTATTTGCTATGTTGCCTCTTTAAATTTCGACAATCGGAGTCACCTAGTGCAG | 9000 fluorescence intensity (a.u.) |
| AACCCATTACATAGCTGCAAGAAACCCAATCTTTCTTTACCGGAGTCACCTAGTGCAG | 8420 fluorescence intensity (a.u.) |
| ATCTCTCTCTGTCTCGGCCTCTCCTGTTCTGGTCCAATCACGGAGTCACCTAGTGCAG | 16300 fluorescence intensity (a.u.) |
| TGGTTCCGTTTGACGGTTTCGGAAGCCCCGGTCCATGTTTCGGAGTCACCTAGTGCAG | 8480 fluorescence intensity (a.u.) |
| TTCACTTTGCCCCGATCCGCACCCAAACCCTAGCCATCTACGGAGTCACCTAGTGCAG | 8980 fluorescence intensity (a.u.) |
| ATGCCATATGCCAGTACGGATCTTTTTGTGTCTGTTAGACCGGAGTCACCTAGTGCAG | 8400 fluorescence intensity (a.u.) |
| TTGATGTGTGCCGTTCTTTATTACTACGTGTTAGAAGTTACGGAGTCACCTAGTGCAG | 11600 fluorescence intensity (a.u.) |
| GTTACATAATTCTCCTTGTTTAAGTCCATATAATGTTTCTCGGAGTCACCTAGTGCAG | 8220 fluorescence intensity (a.u.) |
| TATGGCCAACCTGCCCTACTCCTGTCTCTGTCCCTGTCATCGGAGTCACCTAGTGCAG | 11100 fluorescence intensity (a.u.) |
